# Data as given in PubChem BioAssay AID1671195 (Yale University, 2021).
# Screen: 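Regulators of LDL receptor activity judged by labelled LDL uptake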 (primary screen)
# Cells: human Huh7 hepatoma cells
# Reagent: siRNA pool against human genes, 18 nM
# Duration: about 2 to 2.5 days of knockdown, then 8 h LDL uptake
# Challenge: DiI-labelled LDL at 30 µg/ml for 8 h, in lipoprotein-deficient serum medium
# Detection: 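Per-cell DiI-LDL intensity by automated imaging; well means scaled to the plate median and given as a robust z-score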
# Direction: robust z-score: higher = more LDL uptake after knockdown
# Rule for the call: 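a gene counts as active if at least two replicate z-scores exceed ±2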
# The whole screen tested about 22,000 reagents; shown is a random part of them. About 1,510 of them (6.9%) count as active. 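Active includes knockdowns raising or lowering LDL uptake; positive z-scores mean more uptake, negative mean less.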 A number with no mark means an inactive call. Reagents against one gene are numbered here.
target,pool no.,"robust z-score, replicate 1","robust z-score, replicate 2","robust z-score, replicate 3"
RPS8 (GeneID 6202),1,-0.991,-1.57,-0.173
CLIP2 (GeneID 7461),1,0.307,1.05,0.693
NKX2-8 (GeneID 26257),1,0.252,0.486,0.59
GCGR (GeneID 2642),1,-0.776,0.877,0.259
ARB2BP (GeneID 131909),1,3.04 (active),2.09,2.44
CYP17A1 (GeneID 1586),1,0.845,0.629,0.607
NR1I3 (GeneID 9970),1,0.49,-0.201,0.645
CHIT1 (GeneID 1118),1,-0.135,-0.198,0.117
CXorf65 (GeneID 158830),1,-1.08,-0.928,-0.889
PON2 (GeneID 5445),1,-0.665,-0.441,-0.549
SLITRK5 (GeneID 26050),1,-0.831,0.421,0.753
EIF3L (GeneID 51386),1,-0.884,0.703,0.367
MOSMO (GeneID 730094),1,-0.681,-0.874,-1.1
PPP1R13B-DT (GeneID 145216),1,-0.0922,-0.52,0.879
SAC3D1 (GeneID 29901),1,-0.208,0.0269,-1.29
LOC440474 (retired record) (GeneID 440474),1,-1.42,-1.65,1.7
SERINC3 (GeneID 10955),1,-3.13,-1.09,-1.71
ZER1 (GeneID 10444),1,-0.97,1.28,-1.13
SMG9 (GeneID 56006),1,1.78,2.03,0.186
LOC152122 (retired record) (GeneID 152122),1,0.0306,-0.944,0.0303
CFAP263 (GeneID 29070),1,-1.74,-0.263,0.763
SH3RF3 (GeneID 344558),1,0.153,0.306,0.588
AFG1L (GeneID 246269),1,2.01 (active),1.96,2.1
C5orf63 (GeneID 401207),1,-2.21 (active),-2.28,-2.13
ORC2 (GeneID 4999),1,-0.00648,-0.361,0.302
CASD1 (GeneID 64921),1,-0.637,-0.561,-0.308
SOX15 (GeneID 6665),1,-0.799,-0.431,0.182
OR9I1 (GeneID 219954),1,0.0604,-0.194,-0.317
LOC440450 (retired record) (GeneID 440450),1,0.815,0.683,0.866
STUB1 (GeneID 10273),1,1.81,1.67,1.59
COQ6 (GeneID 51004),1,-1.2,-1.35,-1.38
TRAPPC4 (GeneID 51399),1,-0.89,-0.654,-0.819
POLK (GeneID 51426),1,-0.8,-0.799,-0.423
FGF13 (GeneID 2258),1,0.454,1.3,0.59
FGF13 (GeneID 2258),2,0.0654,0.371,0.647
PHLDB1 (GeneID 23187),1,0.362,-0.639,-0.15
PLXNB3 (GeneID 5365),1,1.2,1.52,0.341
HTR2B (GeneID 3357),1,0.522,0.883,0.721
TSPAN11 (GeneID 441631),1,0.0712,-0.19,-0.191
ELOVL1 (GeneID 64834),1,0.0203,-0.0394,0.0564
LRCH1 (GeneID 23143),1,2.06,-1.02,0.977
JAK1 (GeneID 3716),1,-2.02,-1.83,-1.88
TMF1 (GeneID 7110),1,-1.2,-2.41,-1.13
NLK (GeneID 51701),1,0.835,-0.623,-0.062
RAMAC (GeneID 83640),1,0.665,0.808,0.226

Reagents listed above called active:
target,pool no.,"robust z-score, replicate 1","robust z-score, replicate 2","robust z-score, replicate 3"
ARB2BP (GeneID 131909),1,3.04 (active),2.09,2.44
AFG1L (GeneID 246269),1,2.01 (active),1.96,2.1
C5orf63 (GeneID 401207),1,-2.21 (active),-2.28,-2.13

The list goes on:
target,pool no.,"robust z-score, replicate 1","robust z-score, replicate 2","robust z-score, replicate 3"
MCF2L2 (GeneID 23101),1,-1.93 (active),-0.0684,-2.02
NPHP4 (GeneID 261734),1,-1.07,-1.06,-1.02
FUCA2 (GeneID 2519),1,1.17,0.321,0.49
BSDC1 (GeneID 55108),1,-0.833,-0.769,0.995
GLI4 (GeneID 2738),1,-0.211,0.358,-0.178
SS18L1 (GeneID 26039),1,0.382,-0.12,0.299
OR5B21 (GeneID 219968),1,3.9 (active),4.01,3.7
FAHD1 (GeneID 81889),1,-1.22,-1.54,-1.37
OGT (GeneID 8473),1,0.625,2.36,0.591
ZFP92 (GeneID 139735),1,-0.628,-1.15,-0.727
MT3 (GeneID 4504),1,-0.678,-1.84,-0.968
DYM (GeneID 54808),1,4.5 (active),4.23,4.13
HDAC3 (GeneID 8841),1,1.02,1.11,0.557
RNASEH2A (GeneID 10535),1,-0.652,-0.712,-0.62
LOC441790 (retired record) (GeneID 441790),1,2.15 (active),2.27,3.01
KCNK17 (GeneID 89822),1,2.22,1.67,1.78
TPSG1 (GeneID 25823),1,3.34 (active),2.97,2.85
SECISBP2L (GeneID 9728),1,1.53,-0.298,-0.561
HSPA4 (GeneID 3308),1,0.837,1.09,0.74
CKLF (GeneID 51192),1,1.15,2.16,1.81
CCT6A2P (GeneID 643253),1,1.64,1.17,1.09
DDAH1 (GeneID 23576),1,0.199,-0.204,-0.454
LRFN1 (GeneID 57622),1,-0.907,-0.57,-1.11
ACAD9 (GeneID 28976),1,1.71,1.08,1.77
TMSB15B (GeneID 286527),1,0.703,0.974,1.1
LGR4 (GeneID 55366),1,-0.985,-0.544,-0.156
IQGAP2 (GeneID 10788),1,2.28 (active),2.38,2.56
STGC3 (retired record) (GeneID 474171),1,1.05,1.21,1.52
C1QTNF6 (GeneID 114904),1,0.717,-0.4,0.061
OXCT2 (GeneID 64064),1,-0.734,0.553,-0.797
FGD4 (GeneID 121512),1,-0.542,0.271,-0.506
ANKRD1 (GeneID 27063),1,-0.746,-0.415,-0.63
PTPRN2 (GeneID 5799),1,0.954,0.434,1.64
KRABD5P1 (GeneID 342426),1,-0.751,-0.846,-0.575
TMX4 (GeneID 56255),1,0.208,-0.0494,-0.343
HCFC1 (GeneID 3054),1,1.87,1.23,0.548
CTAGE15 (GeneID 441294),1,0.553,-1.27,-0.655
LNPEP (GeneID 4012),1,-0.493,-0.204,-0.211
NLRP13 (GeneID 126204),1,-0.041,-0.609,-0.645
GARS1 (GeneID 2617),1,0.585,0.834,0.693
LOC340477 (retired record) (GeneID 340477),1,-0.221,-0.121,-0.152
CSN1S2AP (GeneID 286828),1,-1.59,-1.55,-1.25
